Test results published in the supplement of paper PMC10849652.
Some of the results follow.

Sequences of proteins named here, by UniProt entry; tags and fusion partners are left off. A change or cut given only in a name is not applied to a line headed by its entry.
UniProt O75874, whole entry, looked up: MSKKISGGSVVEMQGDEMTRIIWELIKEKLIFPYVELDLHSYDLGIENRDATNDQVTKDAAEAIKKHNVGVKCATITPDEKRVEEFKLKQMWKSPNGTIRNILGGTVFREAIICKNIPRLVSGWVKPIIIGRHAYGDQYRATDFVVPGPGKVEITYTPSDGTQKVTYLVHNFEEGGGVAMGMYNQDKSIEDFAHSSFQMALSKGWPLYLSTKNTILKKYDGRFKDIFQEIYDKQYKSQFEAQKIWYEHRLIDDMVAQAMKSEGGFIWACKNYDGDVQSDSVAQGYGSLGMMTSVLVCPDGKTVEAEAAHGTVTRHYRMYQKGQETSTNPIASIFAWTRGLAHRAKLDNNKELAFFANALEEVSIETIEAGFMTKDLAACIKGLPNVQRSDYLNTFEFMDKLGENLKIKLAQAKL
UniProt P49441: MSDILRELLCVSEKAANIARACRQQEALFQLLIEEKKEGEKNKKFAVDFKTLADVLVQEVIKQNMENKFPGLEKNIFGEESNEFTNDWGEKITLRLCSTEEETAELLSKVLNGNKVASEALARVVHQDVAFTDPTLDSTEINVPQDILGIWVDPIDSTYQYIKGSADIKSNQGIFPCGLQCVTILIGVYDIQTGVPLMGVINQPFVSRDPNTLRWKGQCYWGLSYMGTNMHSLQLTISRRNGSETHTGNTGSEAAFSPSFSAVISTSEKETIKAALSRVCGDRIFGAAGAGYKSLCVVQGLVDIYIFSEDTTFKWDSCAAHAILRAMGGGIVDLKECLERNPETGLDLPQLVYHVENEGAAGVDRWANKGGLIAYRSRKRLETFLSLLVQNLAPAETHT
UniProt O14920: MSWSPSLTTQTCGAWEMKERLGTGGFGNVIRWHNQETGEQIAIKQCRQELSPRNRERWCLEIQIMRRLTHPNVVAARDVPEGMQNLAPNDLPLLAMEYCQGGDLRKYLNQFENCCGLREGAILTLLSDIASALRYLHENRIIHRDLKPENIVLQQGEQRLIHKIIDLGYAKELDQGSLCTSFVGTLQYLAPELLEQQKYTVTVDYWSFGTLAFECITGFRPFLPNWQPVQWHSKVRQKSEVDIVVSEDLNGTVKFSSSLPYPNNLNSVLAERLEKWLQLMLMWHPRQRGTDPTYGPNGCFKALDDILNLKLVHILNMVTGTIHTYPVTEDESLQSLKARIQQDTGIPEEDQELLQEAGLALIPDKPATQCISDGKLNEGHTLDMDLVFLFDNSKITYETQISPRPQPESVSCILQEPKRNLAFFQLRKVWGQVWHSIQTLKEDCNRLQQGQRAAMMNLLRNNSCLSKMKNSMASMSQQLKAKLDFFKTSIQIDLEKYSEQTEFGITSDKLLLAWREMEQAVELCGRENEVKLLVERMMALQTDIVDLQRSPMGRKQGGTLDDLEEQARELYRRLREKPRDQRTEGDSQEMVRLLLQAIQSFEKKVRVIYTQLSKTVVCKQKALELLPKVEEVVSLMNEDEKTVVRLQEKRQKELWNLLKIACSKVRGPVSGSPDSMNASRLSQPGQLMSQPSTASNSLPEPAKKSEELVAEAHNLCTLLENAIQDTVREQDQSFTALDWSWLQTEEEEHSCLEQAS
UniProt Q13422: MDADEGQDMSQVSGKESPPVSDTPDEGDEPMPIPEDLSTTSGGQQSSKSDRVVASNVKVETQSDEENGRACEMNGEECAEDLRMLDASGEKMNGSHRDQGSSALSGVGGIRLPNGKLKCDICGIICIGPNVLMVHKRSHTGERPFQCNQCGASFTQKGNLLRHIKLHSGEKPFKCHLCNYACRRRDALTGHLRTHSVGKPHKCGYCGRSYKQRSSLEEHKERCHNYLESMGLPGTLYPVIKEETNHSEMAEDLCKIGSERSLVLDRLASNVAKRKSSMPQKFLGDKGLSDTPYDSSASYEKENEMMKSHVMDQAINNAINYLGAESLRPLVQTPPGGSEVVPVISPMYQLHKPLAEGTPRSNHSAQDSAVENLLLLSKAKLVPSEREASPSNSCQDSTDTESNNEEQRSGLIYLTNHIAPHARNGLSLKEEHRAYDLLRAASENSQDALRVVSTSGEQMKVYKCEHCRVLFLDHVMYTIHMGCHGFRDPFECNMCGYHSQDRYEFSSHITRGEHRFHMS
UniProt Q9H0C8: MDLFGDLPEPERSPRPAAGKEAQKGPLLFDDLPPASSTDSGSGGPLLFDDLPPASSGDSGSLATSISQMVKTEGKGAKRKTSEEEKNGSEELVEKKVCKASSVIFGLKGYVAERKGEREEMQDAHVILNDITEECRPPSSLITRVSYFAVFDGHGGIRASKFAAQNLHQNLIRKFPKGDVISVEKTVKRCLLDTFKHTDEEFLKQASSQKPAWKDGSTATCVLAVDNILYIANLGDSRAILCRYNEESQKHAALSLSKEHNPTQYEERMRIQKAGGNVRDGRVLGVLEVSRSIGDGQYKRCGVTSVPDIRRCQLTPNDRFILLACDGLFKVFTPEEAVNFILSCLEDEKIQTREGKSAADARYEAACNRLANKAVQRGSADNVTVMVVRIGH
UniProt Q96T52: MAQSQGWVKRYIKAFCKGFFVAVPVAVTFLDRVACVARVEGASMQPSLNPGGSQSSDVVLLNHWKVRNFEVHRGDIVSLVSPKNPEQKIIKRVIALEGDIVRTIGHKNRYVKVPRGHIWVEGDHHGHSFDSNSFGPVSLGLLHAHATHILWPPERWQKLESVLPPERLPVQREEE
UniProt P22692: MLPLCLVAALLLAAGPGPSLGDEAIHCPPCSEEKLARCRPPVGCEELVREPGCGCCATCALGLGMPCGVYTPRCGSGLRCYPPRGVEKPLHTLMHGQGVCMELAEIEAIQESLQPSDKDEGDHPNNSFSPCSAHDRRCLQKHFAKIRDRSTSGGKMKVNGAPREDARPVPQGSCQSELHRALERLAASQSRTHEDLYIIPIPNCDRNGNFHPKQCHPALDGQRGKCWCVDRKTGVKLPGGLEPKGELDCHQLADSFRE
UniProt Q96LU5: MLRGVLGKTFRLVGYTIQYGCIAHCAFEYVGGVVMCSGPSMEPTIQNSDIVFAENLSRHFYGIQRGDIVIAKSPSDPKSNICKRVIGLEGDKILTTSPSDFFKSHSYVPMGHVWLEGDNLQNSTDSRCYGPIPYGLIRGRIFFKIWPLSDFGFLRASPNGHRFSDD
UniProt P51553: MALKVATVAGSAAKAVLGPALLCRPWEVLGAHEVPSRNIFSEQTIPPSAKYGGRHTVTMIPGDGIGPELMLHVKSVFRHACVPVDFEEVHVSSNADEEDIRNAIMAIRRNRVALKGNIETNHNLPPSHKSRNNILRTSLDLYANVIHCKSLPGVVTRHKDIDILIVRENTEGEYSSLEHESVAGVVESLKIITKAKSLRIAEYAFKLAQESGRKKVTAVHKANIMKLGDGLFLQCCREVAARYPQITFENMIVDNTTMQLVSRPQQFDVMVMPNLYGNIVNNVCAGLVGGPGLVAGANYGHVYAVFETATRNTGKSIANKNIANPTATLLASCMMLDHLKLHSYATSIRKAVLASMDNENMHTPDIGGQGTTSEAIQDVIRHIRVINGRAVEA
UniProt P48200: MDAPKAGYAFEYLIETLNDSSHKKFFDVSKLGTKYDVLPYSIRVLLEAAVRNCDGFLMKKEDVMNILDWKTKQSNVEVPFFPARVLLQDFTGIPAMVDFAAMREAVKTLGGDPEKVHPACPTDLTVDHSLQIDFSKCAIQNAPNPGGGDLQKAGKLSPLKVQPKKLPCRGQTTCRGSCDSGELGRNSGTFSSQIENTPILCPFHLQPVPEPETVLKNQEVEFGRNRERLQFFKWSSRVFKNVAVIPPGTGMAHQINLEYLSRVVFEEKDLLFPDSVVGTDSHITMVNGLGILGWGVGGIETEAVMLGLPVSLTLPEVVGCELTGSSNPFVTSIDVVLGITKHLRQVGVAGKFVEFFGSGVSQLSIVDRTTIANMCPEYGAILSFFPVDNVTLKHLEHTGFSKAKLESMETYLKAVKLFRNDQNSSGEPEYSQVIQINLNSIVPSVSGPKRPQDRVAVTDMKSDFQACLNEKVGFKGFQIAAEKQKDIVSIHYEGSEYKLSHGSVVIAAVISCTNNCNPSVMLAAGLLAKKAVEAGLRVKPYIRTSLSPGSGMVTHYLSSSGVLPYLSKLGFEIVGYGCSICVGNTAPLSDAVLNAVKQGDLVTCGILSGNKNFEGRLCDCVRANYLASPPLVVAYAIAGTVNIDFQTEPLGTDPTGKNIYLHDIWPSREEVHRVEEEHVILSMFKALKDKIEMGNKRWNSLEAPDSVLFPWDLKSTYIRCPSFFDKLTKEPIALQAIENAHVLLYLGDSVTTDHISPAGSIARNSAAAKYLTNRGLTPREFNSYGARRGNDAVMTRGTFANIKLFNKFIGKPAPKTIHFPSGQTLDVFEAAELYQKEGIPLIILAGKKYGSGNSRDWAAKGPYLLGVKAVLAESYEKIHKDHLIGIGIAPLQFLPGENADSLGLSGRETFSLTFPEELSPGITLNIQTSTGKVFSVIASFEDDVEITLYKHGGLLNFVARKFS
UniProt P80217: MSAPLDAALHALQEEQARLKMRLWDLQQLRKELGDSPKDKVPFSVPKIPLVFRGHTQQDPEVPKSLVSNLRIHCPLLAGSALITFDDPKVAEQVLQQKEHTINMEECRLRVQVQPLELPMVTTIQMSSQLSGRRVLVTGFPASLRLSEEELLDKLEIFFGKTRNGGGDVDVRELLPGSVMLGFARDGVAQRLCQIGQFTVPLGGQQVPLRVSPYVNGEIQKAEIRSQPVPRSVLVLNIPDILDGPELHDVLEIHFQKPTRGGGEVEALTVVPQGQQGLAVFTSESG
UniProt Q70UQ0: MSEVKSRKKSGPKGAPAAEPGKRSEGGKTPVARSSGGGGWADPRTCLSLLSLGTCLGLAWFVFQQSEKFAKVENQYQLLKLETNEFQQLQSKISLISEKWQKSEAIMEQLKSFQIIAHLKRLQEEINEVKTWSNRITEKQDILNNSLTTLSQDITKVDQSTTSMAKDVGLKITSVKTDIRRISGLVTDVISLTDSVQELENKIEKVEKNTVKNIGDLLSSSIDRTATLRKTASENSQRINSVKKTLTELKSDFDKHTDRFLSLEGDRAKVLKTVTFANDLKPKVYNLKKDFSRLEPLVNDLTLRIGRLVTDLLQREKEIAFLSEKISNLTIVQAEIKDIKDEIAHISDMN
UniProt P14316: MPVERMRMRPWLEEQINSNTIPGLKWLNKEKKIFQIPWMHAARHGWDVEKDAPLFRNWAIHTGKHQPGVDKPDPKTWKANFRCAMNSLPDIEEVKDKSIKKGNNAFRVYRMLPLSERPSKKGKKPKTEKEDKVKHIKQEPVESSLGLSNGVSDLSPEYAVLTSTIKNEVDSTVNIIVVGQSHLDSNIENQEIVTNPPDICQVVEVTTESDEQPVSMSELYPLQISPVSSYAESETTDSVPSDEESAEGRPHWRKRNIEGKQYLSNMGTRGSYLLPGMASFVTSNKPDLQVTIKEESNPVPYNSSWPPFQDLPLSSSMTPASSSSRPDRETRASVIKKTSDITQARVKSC

compound: CC1=C2C(=CC=C1)N=C(N(C2=O)C3=CC=CC=C3C)CN4C=NC5=C(N=CN=C54)N; assay: log2 fold change, soluble protein after heating vs DMSO (PISA); higher = thermal stabilisation; K562 cells, 10 uM, 30 min; active = over 0.2 and 3.5 SD of the protein, either way, in both replicates (recomputed)
In short: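 K562 cells at 2×10^6 cells/mL were treated with 10 μM compound for 30 min. Aliquots were heated for 3 min across 48°C-58°C, pooled, and extracted in PBS with 0.5% NP-40 at 4°C; soluble protein was the supernatant after 21,000xg for 90 min. Soluble protein was quantified by TMTpro 16plex LC-MS/MS with channel sums equalised, and reported as log2 fold change in thermal stability against DMSO controls, with values from duplicates.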

| Target | log2 fold change |
| --- | --- |
| IDH1 (UniProt O75874) | inactive: -0.009 |
| INPP1 (UniProt P49441) | inactive: 0.125 |
| IKBKB (UniProt O14920) | inactive: 0.34 |
| IKZF1 (UniProt Q13422) | inactive: 0.15 |
| IFT74 (UniProt Q96LB3) | inactive: 0.163 |
| IRGQ (UniProt Q8WZA9) | inactive: 0.048 |
| ILKAP (UniProt Q9H0C8) | inactive: 0.135 |
| IPO4 isoform 2 (UniProt Q8TEX9) | inactive: -0.016 |
| IMMP2L (UniProt Q96T52) | inactive: 0.151 |
| IGFBP4 (UniProt P22692) | inactive: 0.087 |
| IMMP1L (UniProt Q96LU5) | inactive: 0.101 |
| IDH3G (UniProt P51553) | inactive: 0.007 |
| IPO9 (UniProt Q96P70) | inactive: 0.014 |
| IREB2 (UniProt P48200) | inactive: -0.026 |
| IFI35 isoform 2 (UniProt P80217) | inactive: 0.001 |
| IRF3 (UniProt Q14653) | inactive: 0.015 |
| IKBIP isoform 4 (UniProt Q70UQ0) | inactive: 0.017 |
| IRF2 (UniProt P14316) | inactive: 0.029 |

A second format for part of the listing above:
Target | log2 fold change
IGFBP4 (UniProt P22692) | inactive: 0.087
IPO9 (UniProt Q96P70) | inactive: 0.014
